Experimental data: PubChem BioAssay AID1875 (Broad Institute, 2009)
Among all 300,000 compounds or so, about 65 (0.02%) were called active. All entries are inconclusive by the source's own rule. Clear calls are listed elsewhere.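 Rule for the calls: active = lowest replicate activity score at least 50, where 100 means six control SD above control mean; inconclusive = lowest score under 50 but half or more replicates reach 50; inactive = the rest.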

Test: polyadenylation inhibitors in yeast reporter cells, primary screen, luminescence, S. cerevisiae (AID 1875);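 note: yeast exposed to compound for 9 h at 30 °C; higher score means more reporter readthrough which indicates perturbed polyadenylation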
Conditions: S. cerevisiae SKY197-pL101 polyadenylation reporter, beta-gal luminescence; at 12 µM; hits give high values; efflux-impaired pdr1/pdr3 knockout yeast; score 100 = 6 SD above DMSO

Row | SMILES | activity score
1 | O=C(O)C1(Nc2ccccc2)CCN(Cc2ccccc2)CC1 | inconclusive: 37.7%
2 | O=C(NCC1(N2CCCCC2)CCCCC1)c1cccs1 | inconclusive: 23%
3 | COc1ccc(C(=O)NCC2(N3CCCCC3)CCCCC2)c(OC)c1OC | inconclusive: 32.6%
